Reference: patent US7786145B2, “Cyanoguanidine-based azole compounds useful as malonyl-CoA decarboxylase inhibitors” (Chugai Seiyaku Kabushiki Kaisha, priority 2003, dated 2010)
Structures were worked out from names or drawings and are uncertain.

Amino acid sequences for entries named in this document (tags omitted). Residues count along the entry.
UniProt O95822, 40-493 limits assumed: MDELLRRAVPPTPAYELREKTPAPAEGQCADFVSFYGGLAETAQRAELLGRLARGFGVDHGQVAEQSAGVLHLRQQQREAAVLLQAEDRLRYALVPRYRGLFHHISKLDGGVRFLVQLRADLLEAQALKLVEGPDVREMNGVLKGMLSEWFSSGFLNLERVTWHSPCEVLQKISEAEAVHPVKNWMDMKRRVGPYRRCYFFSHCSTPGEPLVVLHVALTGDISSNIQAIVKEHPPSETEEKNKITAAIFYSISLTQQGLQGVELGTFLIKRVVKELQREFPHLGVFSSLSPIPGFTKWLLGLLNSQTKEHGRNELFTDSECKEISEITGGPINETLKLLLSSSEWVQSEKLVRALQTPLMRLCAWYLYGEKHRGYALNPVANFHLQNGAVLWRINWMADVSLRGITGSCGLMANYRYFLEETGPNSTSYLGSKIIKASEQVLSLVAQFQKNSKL

Biological target: hMCD (malonyl-CoA decarboxylase) (Homo sapiens, UniProt O95822)
Test: In Vitro MCD Inhibitory Assay
Conditions: Table 1, MCD inhibition
Experimental: In Vitro MCD Inhibitory Assay:
The conversion of […] was assayed using a modified protocol as previously described by Kim, Y. S. and Kolattukudy, P. E. in 1978 (Arch. Biochem. Biophys 190:585 (1978)). As shown in eq. 1-3, the establishment of the kinetic equilibrium between malate/NAD and oxaloacetate/NADH was catalyzed by malic dehydrogenase (eq. 2). […] The accumulation of NADH can be continuously followed by monitoring the increase of fluorescence emission at 460 nm on a fluorescence plate reader. The fluorescence plate reader was calibrated using the authentic acetyl-CoA from Sigma. For a typical 96-well plate assay, the increase in the fluorescence emission (λex=360 nm, λem=460 nm, for NADH) in each well was used to calculate the initial velocity of hMCD. Each 50 μL assay contained 10 mM phosphate buffered saline (Sigma), pH 7.4, 0.05% Tween-20, 25 mM K2HPO4—KH2PO4 (Sigma), 2 mM Malate (Sigma), 2 mM NAD (Boehringer Mannheim), 0.786 units of MD (Roche Chemicals), 0.028 unit of CS (Roche Chemicals), 5-10 nM hMCD, and varying amounts of MCA substrate. Assays were initiated by the addition of MCA, and the rates were corrected for the background rate determined in the absence of hMCD.

CCN(C(C)=O)C1CCN(C(=NC#N)Nc2ccc3nc(S)sc3c2)C1 (stereo not shown)
Ki: 1.41 µM
